Values of other authors as cited in US20220249381A1, “COMPRESSED MACITENTAN COMPOSITIONS, METHODS AND USES THEREOF” (TECNIMEDE - SOCIEDADE TÉCNICO-MEDICINAL, SA, priority 2019, published 2022).
The name of at least one read-out is uncertain.

Settings: BCS characterisation

For `CCCNS(=O)(=O)Nc1ncnc(OCCOc2ncc(Br)cn2)c1-c1ccc(Br)cc1` [Macitentan, N-[5-(4-Bromophenyl)-6-[2-[(5-bromo-2-pyrimidinyl)oxy]ethoxy]-4-pyrimidinyl]-N′propylsulfamide], the permeability is given as “high permeability”.
